Results are given in words; binding and its absence hold for the method and conditions named. In cells and extracts the contact can be indirect. Some binding calls cover weakened binding; strength is not graded here.
Experiments:
[1] = target: hnRNPU (mouse (endogenous in testis)) (UniProt Q8VEK3); test: co-IP; lysates of mouse testes at postnatal day 3 immunoprecipitated with anti-hnRNPU and anti-WT1 antibodies, respectively; western blot with the reciprocal antibody; lysis buffer 20 mM HEPES, 150 mM NaCl, 2 mM magnesium acetate, 0.2% NP-40, 1 mM DTT, pH 7.3; 4 °C overnight
[2] = target: hnRNPU (mouse (endogenous in testis)) (UniProt Q8VEK3); test: co-IP; immunoprecipitation of hnRNPU in isolated mouse Sertoli cells at P3, western blot of Pol II, hnRNPU, SOX9, WT1 and SOX8; called RNA-independent
[3] = target: Wilms' tumor 1 (WT1) (mouse (endogenous in testis)) (UniProt P22561); test: co-IP; lysates of mouse testes at postnatal day 3 immunoprecipitated with anti-hnRNPU and anti-WT1 antibodies, respectively; western blot with the reciprocal antibody; lysis buffer 20 mM HEPES, 150 mM NaCl, 2 mM magnesium acetate, 0.2% NP-40, 1 mM DTT, pH 7.3; 4 °C overnight

Sequences of proteins named here, by UniProt entry; tags and fusion partners are left off.
UniProt Q8VEK3: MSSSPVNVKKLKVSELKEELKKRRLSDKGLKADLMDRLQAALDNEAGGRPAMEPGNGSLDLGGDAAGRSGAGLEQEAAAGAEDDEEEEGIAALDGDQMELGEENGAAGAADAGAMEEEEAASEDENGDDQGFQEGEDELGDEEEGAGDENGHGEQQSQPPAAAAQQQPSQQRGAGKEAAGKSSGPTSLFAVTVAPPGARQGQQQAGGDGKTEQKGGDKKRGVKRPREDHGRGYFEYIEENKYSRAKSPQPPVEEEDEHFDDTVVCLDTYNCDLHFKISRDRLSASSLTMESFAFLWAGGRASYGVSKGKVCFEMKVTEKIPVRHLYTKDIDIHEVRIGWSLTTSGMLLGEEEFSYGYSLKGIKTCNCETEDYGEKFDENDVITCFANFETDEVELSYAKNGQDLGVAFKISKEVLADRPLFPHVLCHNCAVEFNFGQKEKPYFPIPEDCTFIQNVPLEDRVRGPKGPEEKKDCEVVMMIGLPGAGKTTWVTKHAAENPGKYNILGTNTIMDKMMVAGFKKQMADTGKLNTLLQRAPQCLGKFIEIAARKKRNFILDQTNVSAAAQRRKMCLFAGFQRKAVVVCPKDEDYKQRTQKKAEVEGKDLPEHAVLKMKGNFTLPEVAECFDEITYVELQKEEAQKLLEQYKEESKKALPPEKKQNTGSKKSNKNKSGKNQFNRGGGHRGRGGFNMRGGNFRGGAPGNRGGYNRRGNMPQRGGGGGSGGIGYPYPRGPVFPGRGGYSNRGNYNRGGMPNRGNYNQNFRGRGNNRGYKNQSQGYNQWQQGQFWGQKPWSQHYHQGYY
UniProt P22561: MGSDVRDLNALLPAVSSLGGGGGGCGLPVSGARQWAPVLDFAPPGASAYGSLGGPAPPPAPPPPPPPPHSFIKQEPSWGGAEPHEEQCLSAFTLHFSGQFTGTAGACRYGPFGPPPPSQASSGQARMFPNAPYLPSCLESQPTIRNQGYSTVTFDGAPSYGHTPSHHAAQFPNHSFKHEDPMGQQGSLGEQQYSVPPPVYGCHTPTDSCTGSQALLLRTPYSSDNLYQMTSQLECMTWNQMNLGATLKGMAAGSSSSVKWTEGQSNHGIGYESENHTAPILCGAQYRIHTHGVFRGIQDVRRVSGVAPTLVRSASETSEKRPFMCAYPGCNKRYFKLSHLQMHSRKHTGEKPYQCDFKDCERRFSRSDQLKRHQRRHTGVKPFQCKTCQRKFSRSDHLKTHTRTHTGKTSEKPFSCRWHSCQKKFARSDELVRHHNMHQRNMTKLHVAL

| binding [1] | binding [2] | binding [3] | Substance |
| --- | --- | --- | --- |
| binds | binds | – | Wilms' tumor 1 (WT1) (from UniProt P22561 1-449) |
| – | – | binds | hnRNPU (from UniProt Q8VEK3 1-800) |

Source: PMC8581416
